Data as given in PubChem BioAssay AID652243 (Drosophila RNAi Screening Center, 2013)
Test: 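Knock-downs that decrease or increase androgen receptor reporter signal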 (primary screen). System: Drosophila S2R+ cells. Reagent: long dsRNA against Drosophila genes. Time to read-out: 72 h (48 h, then 24 h hormone). Challenge: synthetic androgen R1881 at 10 nM for 24 h. Measurement: 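Per-well raw luminescence of the androgen-driven firefly reporter and of the Renilla control, two replicates each, without normalisation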. Reading the numbers: firefly reporter light: higher = more light from androgen-responsive reporter; Renilla control light: higher = more constitutive control signal (cell number, transfection). Active means: 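Hit when the log firefly-to-Renilla ratio dropped or increased by a fixed fold versus the mean of GFP or LacZ controls across duplicate plates; lowering cut given as 1.5 and as 3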. Meaning of the calls: active = hit: reporter lowered or raised; inactive = no hit.
In all, the deposit lists about 24,000 reagents; this is a random part of those with a known target gene and a result. Over the whole deposit, 246 (1%) got an active call. 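Plates not normalised; calls are printed but the firefly/Renilla ratio behind them is not deposited; fold cut for lowering reported inconsistently.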 Raw values vary from plate to plate and are shown uncorrected. Unmarked entries are inactive. A plus sign joins genes that one reagent is predicted to hit. Not stated in the record: the amount of reagent.

The opening 2 records, to show the layout:
no.	target gene	dsRNA	firefly reporter light, replicate 1	firefly reporter light, replicate 2	Renilla control light, replicate 1	Renilla control light, replicate 2
1	Dnaaf6	DRSC10473	1.58e5	1.77e5	2.00e6	2.36e6
2	p24-1	DRSC19827	2.86e5	1.91e5	2.52e6	2.30e6

The list itself, repeating the preview:
no.	target gene	dsRNA	firefly reporter light, replicate 1	firefly reporter light, replicate 2	Renilla control light, replicate 1	Renilla control light, replicate 2
1	Dnaaf6	DRSC10473	1.58e5	1.77e5	2.00e6	2.36e6
2	p24-1	DRSC19827	2.86e5	1.91e5	2.52e6	2.30e6
3	p24-1	DRSC26718	2.98e5	2.64e5	7.73e5	7.51e5
4	stmA	DRSC07593	5.57e5	7.25e5	1.43e6	1.40e6
5	stmA	DRSC22179	7.27e5	6.73e5	2.66e6	1.76e6
6	RhoGAP19D	DRSC20499	98175	67714	4.05e5	5.50e5
7	RhoGAP19D	DRSC20500	2.53e5	1.25e5	1.13e6	6.07e5
8	CG10853	DRSC08164	1.57e5	1.67e5	2.20e6	3.16e6
9	CG10853	DRSC23600	6.27e5	5.10e5	7.09e5	6.87e5
10	CG4593	DRSC18374	2.12e5	2.72e5	2.22e6	2.52e6
11	CG4593	DRSC29173	4.40e5	5.43e5	1.30e6	1.23e6
12	rdo	DRSC02452	2.16e5	2.35e5	6.49e5	9.62e5
13	rdo	DRSC25572	5.72e5	4.18e5	4.79e5	4.58e5
14	CG43755	DRSC00012	1.56e5	2.59e5	3.10e5	4.34e5
15	CG15547	DRSC15085	1.71e5	1.61e5	1.84e6	2.62e6
16	CG15547	DRSC29577	3.73e5	4.55e5	8.78e5	8.78e5
17	Trap1	DRSC05019	1.05e6	4.53e5	8.42e5	7.40e5
18	Tim8	DRSC20291	5.61e5	5.36e5	3.94e6	3.47e6
19	CG11656	DRSC14338	38266	41025	3.43e5	3.54e5
20	CG11656	DRSC28955	1.04e6	9.16e5	1.93e6	1.25e6
21	Bem46	DRSC00275	1.48e5	95394	1.07e6	9.46e5
22	tex	DRSC16517	75747	1.35e5	1.46e6	1.18e6
23	MED27	DRSC12205	57663	59617	2.17e6	1.66e6
24	CG43693	DRSC09086	2.81e5	1.93e5	3.89e5	3.85e5
25	CG43693	DRSC10625	9.77e5	7.28e5	1.20e6	1.78e6
26	CG43693	DRSC38675	9.14e5	7.93e5	2.11e6	2.23e6
27	CG30094	DRSC22268	7.53e5	8.41e5	1.19e6	1.13e6
28	CG30094	DRSC27064	3.38e5	2.79e5	9.21e5	4.75e5
29	bab2	DRSC08150	26219	30523	7.55e5	6.56e5
30	bab2	DRSC26326	3.41e5	3.30e5	5.63e5	5.38e5
31	Cen	DRSC02704	1.01e6	1.33e6	1.29e6	2.00e6
32	CG12659	DRSC17862	3.61e5	3.90e5	2.08e6	1.84e6
33	CG12659	DRSC27326	3.05e5	2.60e5	5.74e5	3.36e5
34	CG13064	DRSC09947	3.28e5	2.50e5	2.76e6	2.60e6
35	CG43078	DRSC10292	6.05e5	7.57e5	9.58e5	1.55e6
36	CG43078	DRSC10608	8.84e5	1.06e6	1.44e6	1.58e6
37	CG43078	DRSC21541	8.13e5	5.65e5	1.54e6	1.44e6
38	CG43078	DRSC22327	6.55e5	6.80e5	2.63e6	1.74e6
39	CG43078	DRSC27481	3.55e5	3.62e5	5.98e5	5.27e5
40	CG7607	DRSC10889	3.72e5	3.47e5	3.32e6	3.53e6
41	VAChT	DRSC13311	1.41e5	1.43e5	2.01e5	3.11e5
42	VAChT	DRSC16608	27581	26093	3.51e5	4.08e5
43	VAChT	DRSC23986	4.39e5	2.97e5	1.12e6	5.37e5
44	MESK2 + CG10494	DRSC04259	66144 (active)	90610	1.26e6	1.21e6
45	fs(1)Yb	DRSC18777	2.21e5	3.82e5	3.17e6	3.38e6
46	slbo	DRSC04716	7.62e5	7.04e5	1.68e6	1.32e6
47	slbo	DRSC27813	2.96e5	2.70e5	5.92e5	7.48e5
48	Rad17	DRSC16811	67498 (active)	84804	1.61e6	2.06e6
49	CG6028	DRSC15951	60318	51330	4.07e5	3.81e5
50	RpS27	DRSC14244	2.00e5	2.12e5	1.37e6	1.32e6
51	RpS27	DRSC29946	3.51e5	4.51e5	7.94e5	9.06e5
52	pasha	DRSC15295	75941	65662	8.26e5	4.89e5
53	pasha	DRSC27821	2.02e5	2.24e5	5.04e5	8.05e5
54	UQCR-Q	DRSC10886	3.68e5	2.90e5	1.79e6	2.23e6
55	obst-J	DRSC10821	2.26e5	2.29e5	2.46e6	3.02e6
56	obst-J	DRSC28354	2.97e5	6.12e5	9.50e5	2.11e6
57	CG3534	DRSC15494	1.14e5	1.25e5	2.06e6	2.38e6
58	CG3534	DRSC26023	2.61e5	2.80e5	6.42e5	6.71e5
